This is one part of the list.

This note sets out measurements from article PMC7819943, “Rice protein-binding microarrays: a tool to detect cis-acting elements near promoter regions in rice”.

This assay addresses T1, OsSMF1 (Oryza sativa, UniProt Q6ZLB0 1-436).
T1 sequence: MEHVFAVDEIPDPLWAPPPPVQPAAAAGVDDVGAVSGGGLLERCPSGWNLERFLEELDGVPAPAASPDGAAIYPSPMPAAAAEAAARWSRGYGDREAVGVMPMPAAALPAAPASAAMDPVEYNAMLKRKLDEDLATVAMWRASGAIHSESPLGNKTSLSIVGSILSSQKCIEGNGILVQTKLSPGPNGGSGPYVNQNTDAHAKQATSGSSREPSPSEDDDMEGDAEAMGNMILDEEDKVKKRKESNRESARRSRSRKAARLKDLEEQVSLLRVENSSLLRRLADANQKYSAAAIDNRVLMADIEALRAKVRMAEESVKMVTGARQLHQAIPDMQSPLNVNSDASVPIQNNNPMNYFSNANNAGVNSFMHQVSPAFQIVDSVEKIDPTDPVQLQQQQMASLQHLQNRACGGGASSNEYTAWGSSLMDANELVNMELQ
Kind of assay: protein-binding microarray (RPBM); PBS, 2% BSA, 51.3 ng/ul salmon testes DNA, 50 uM zinc acetate, 200 nM TF, 25 C, 1 h; high values mean tight binding. As to conditions: protein: recombinant; tags: N-terminal polyhistidine and DsRed monomer fusion (pET32a); chain copies: 2; label: CyDye5-dUTP incorporated in the synthesized complementary strand; 3' TTTTT single-stranded linker to array surface; dsDNA, one strand shown. The procedure, abridged:
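Binding signal is defined as the fluorescence intensity of each feature in arbitrary units, read on an Axon 4000B scanner. Transcription factors with N-terminal polyhistidine and DsRed fusions came from E. coli BL21-CodonPlus and were purified on Ni–NTA. They were incubated at 200 nM for 1 h at 25 °C on a custom Agilent array that had been made double-stranded with Cy5-dUTP, with 50 µM zinc acetate present, and the array was washed.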
With “ACACACTGCAGACTTGCAGTTGTTGACTCATGTAACTTTACGGAGTCACCTAGTGCAG”, the binding signal is 7080 fluorescence intensity (a.u.).
Then “ATCATCCAAGGTGACGCATCGGCATCGCCTCTTCCAATCCCGGAGTCACCTAGTGCAG”, with 5880 fluorescence intensity (a.u.); and “GGTAGGCTCCATCCGCGTAGGCATATGATTCTTGGATGATCGGAGTCACCTAGTGCAG”, with 4100 fluorescence intensity (a.u.).
The result for “GATCCAGCTTCATTTCTCAGTCTGACACTGGGCCCCACCTCGGAGTCACCTAGTGCAG” reads 5180 fluorescence intensity (a.u.); that for “CATGTAAACCATCGTCGTGGTCACGTGATCTCGTCGGTCACGGAGTCACCTAGTGCAG”, 3430 fluorescence intensity (a.u.); that for “GGAGGAACGACGGCGACGGCGACGTGGACGTCGACGAGAGCGGAGTCACCTAGTGCAG”, 4360 fluorescence intensity (a.u.).
The result for “CGATGACCACCACGGCGGCTGGTGACGACGACCACGGCGACGGAGTCACCTAGTGCAG” reads 5200 fluorescence intensity (a.u.); that for “TCAAAGGGTTTCATAAATTTTATGTATATTTTACAAGATTCGGAGTCACCTAGTGCAG”, 5540 fluorescence intensity (a.u.).
For the sequence “CGTGTGCAGCCGCCAGTTTGCTACTTTGCAAACGCGTCAGCGGAGTCACCTAGTGCAG”, the binding signal was 4470 fluorescence intensity (a.u.).
Then “AGATAGAACAACTGCAGCTAGCGCTTCTATCTGAAACTCTCGGAGTCACCTAGTGCAG”, with 37700 fluorescence intensity (a.u.).
As for “AGTTTTGTAAGTAGTCTATGTTTAATATTCCAAATTAATACGGAGTCACCTAGTGCAG”, the binding signal was 3860 fluorescence intensity (a.u.).
The result for “CTTCTTTCACTTGCAGGGTAACTATACCTCCACGTCAGGGCGGAGTCACCTAGTGCAG” reads 19800 fluorescence intensity (a.u.); that for “GTGAGAGGGCCTCTGCACCGTCGGATCGCGATCGGACGGCCGGAGTCACCTAGTGCAG”, 34500 fluorescence intensity (a.u.); that for “GAGTTGTGCAGCCAAGTCAGCTGCACATGGGGAACAAGCGCGGAGTCACCTAGTGCAG”, 6520 fluorescence intensity (a.u.).
Consider “GATAGCCACAATCTCGCGTGTGTTCAGAGTGTTCTAGCTACGGAGTCACCTAGTGCAG”, for which the binding signal was 3380 fluorescence intensity (a.u.).
Then “TTGCATCAGGCCCTCTTCAATGATTTAAACAAACAATGGACGGAGTCACCTAGTGCAG”, with 52300 fluorescence intensity (a.u.); and “GGCAGCGACAAGATCACAAAACACTGTAGAAAGGCTGCAGCGGAGTCACCTAGTGCAG”, with 3180 fluorescence intensity (a.u.); and “CGGCCCAAAGTTTATCTTCTTTCCTTCTGACTTCTTTGTGCGGAGTCACCTAGTGCAG”, with 3190 fluorescence intensity (a.u.).
The result for “GCCAATCCGCCGCCGCCACCTCACCCAACCAATCCGCCGCCGGAGTCACCTAGTGCAG” reads 8690 fluorescence intensity (a.u.).
Then “TGCTGCGCCTGTGGCTGCCATAAGTATATCGCACTCCACGCGGAGTCACCTAGTGCAG”, with 38300 fluorescence intensity (a.u.).
Regarding “CGCCGGAGCTGGTCGTGCTGATGCCTGATGGCCTCACACCCGGAGTCACCTAGTGCAG”, the binding signal was 3330 fluorescence intensity (a.u.).
Then “TGGAGGAGGTGGTGGTGGTGGTAGTAGTAGTACGCCGGGGCGGAGTCACCTAGTGCAG”, with 3620 fluorescence intensity (a.u.); and “GGATGGTGGCAGCGGGACTGAAAGAGTCACGGTGGTGGAGCGGAGTCACCTAGTGCAG”, with 3580 fluorescence intensity (a.u.).
“GTTAATGATATGTCATGTTTGCATGATATTTAAAATACTCCGGAGTCACCTAGTGCAG”: the binding signal was 3500 fluorescence intensity (a.u.).
The result for “CACAGTGCACGCACGCAGCTACAAAGATGTCGTACGACCACGGAGTCACCTAGTGCAG” reads 3260 fluorescence intensity (a.u.); that for “ATAACAGCAGGGCGCAAAGCTACACACACGTACGCACACGCGGAGTCACCTAGTGCAG”, 4850 fluorescence intensity (a.u.).
Then “TTTTCGATATATAATTGCCACGTAAGCGTCACGTCAATGCCGGAGTCACCTAGTGCAG”, with 34300 fluorescence intensity (a.u.); and “TAGTAATGTCGTTAAGAAATACCAACAACAATGCAGCAACCGGAGTCACCTAGTGCAG”, with 3200 fluorescence intensity (a.u.); and “GCCCACATCCATCCCGTCACCCGCCCACTCGCCGTCGCACCGGAGTCACCTAGTGCAG”, with 3490 fluorescence intensity (a.u.).
Regarding “ATTTACCCCTCTAAACTACGATACCGGACATTTGACACCCCGGAGTCACCTAGTGCAG”, the binding signal is 3360 fluorescence intensity (a.u.).
Then “GCGGCTAGTCCAAACCATACTTTGTTTTCTTGCAGGACCCCGGAGTCACCTAGTGCAG”, with 33700 fluorescence intensity (a.u.).
The result for “GTGGCCATGCTGATGACACTCCACACTCCTCGACTTTCGTCGGAGTCACCTAGTGCAG” reads 3400 fluorescence intensity (a.u.); that for “TTTTGCTAACGTGACAGGTCCACCACATCAGCACGTGGAACGGAGTCACCTAGTGCAG”, 7760 fluorescence intensity (a.u.); that for “ATTAATCATACGCTAATGACTCATCTTATTTTACGTATCTCGGAGTCACCTAGTGCAG”, 8350 fluorescence intensity (a.u.).
Then “ATAGTGGTTTTGGCTGACGTGGCGCCTACGTGGCTAATTTCGGAGTCACCTAGTGCAG”, with 19600 fluorescence intensity (a.u.); and “CCTTTCCTTCTCCCGCATCTCTCCACGCGAGCGGCCTCTGCGGAGTCACCTAGTGCAG”, with 3420 fluorescence intensity (a.u.); and “GTTGAGCTCTTCTCACCTGCTTGCCGCGGCGTGGTTGCCGCGGAGTCACCTAGTGCAG”, with 19400 fluorescence intensity (a.u.).
For the sequence “AGCAGTGAGCAGTGCCACGTGGGCAGCCCAACACATAAGCCGGAGTCACCTAGTGCAG”, the binding signal was 11900 fluorescence intensity (a.u.).
The result for “AGAGGCCCATAACCGCATACCCCTAGGGCCACGCTATGCTCGGAGTCACCTAGTGCAG” reads 3510 fluorescence intensity (a.u.); that for “GCCCTGTTTATTTTGTACTACTACCGATCGGGCACGGATCCGGAGTCACCTAGTGCAG”, 23900 fluorescence intensity (a.u.).
Then “GAGCATTTAGAAGAGGTGGCAAAGTTAACATACTTTTGTCCGGAGTCACCTAGTGCAG”, with 3930 fluorescence intensity (a.u.); and “GCCGTAATGCTTCTGAGTTCTGACTCCTGCTGCGCTCTCACGGAGTCACCTAGTGCAG”, with 4100 fluorescence intensity (a.u.).
